{
  "source": "patent US20170298338",
  "key": {"[1]": {"biological_target": "p50-Tth DNA ligase fusion (EE0217) (Homo sapiens / Thermus thermophilus) (UniProt P26996)", "test": "activity assay", "details": "blunt-end ligation at 75 C, agarose gel; purified recombinant protein; protein details: His10 leader, p50, glycine-rich linker"}, "[2]": {"test_system": "p50-T4 DNA ligase fusion (N-terminal p50) (Homo sapiens / Enterobacteria phage T4)", "test": "activity assay", "details": "blunt-end ligation at 75 C, agarose gel; purified recombinant protein"}},
  "note": "The exact form of at least one protein or probe is not confirmed. For some assays here: The comparison behind a weaker result is the experiment's own reference, which may not be listed here.",
  "data": [
    {"sequence": "AATTCTCTTTAAATAAACCCAAGGTCTCAGATTTCATGCAGATTGTGTC (double strand) [EE0139/EE0140 49-bp blunt duplex]", "values": [
      {"measurement": "activity on this sequence", "setting": "[1]", "value": "active"},
      {"measurement": "activity on this sequence", "setting": "[2]", "value": "less active"}
    ]}
  ]
}
